Reference: PubChem BioAssay AID1259424 (University of Nebraska Medical Center, 2018)
The whole screen tested about 14,000 reagents; below is a part drawn at random. 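Higher correlation or smaller distance means closer resemblance to KSR1 loss; control wells, including KSR1 knockdowns, recur on many plates.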 Not given: the time to read-out.

Purpose: 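Seek colon cancer survival genes behaving like KSR1, using a six-gene signature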 (primary screen)
Cells: human HCT116 colon cancer cells
Reagents: siRNA pool against human genes, 50 nM
Read-out: 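Six signature mRNAs by branched-DNA multiplex assay, scaled to two housekeeping genes and non-targeting median, log2; matched to mean KSR1 knockdown profile by Pearson correlation and euclidean distance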
Reading the numbers: mean correlation with KSR1 profile and KSR1 correlation: higher = expression change more like KSR1 knockdown; mean distance from KSR1 profile: higher = expression change less like KSR1 knockdown

gene | mean correlation with KSR1 profile | mean distance from KSR1 profile | KSR1 correlation, replicate 1 | KSR1 correlation, replicate 2 | KSR1 correlation, replicate 3
NEUROD2 (neuronal differentiation 2) | 0.601 | 1.81 | 0.605 | 0.647 | 0.494
GCH1 (GTP cyclohydrolase 1) | 0.363 | 2.05 | 0.303 | 0.446 | 0.36
CASQ2 (calsequestrin 2) | 0.273 | 1.65 | 0.518 | 0.19 | 0.377
PARM1 (prostate androgen-regulated mucin-like protein 1) | 0.842 | 0.689 | 0.842 | 0.679 | 0.691
VAV3 (vav guanine nucleotide exchange factor 3) | -0.254 | 1.61 | -0.167 | -0.312 | -0.319
OR51B4 (olfactory receptor family 51 subfamily B member 4) | 0.744 | 1.67 | 0.699 | 0.841 | 0.77
CAPN9 (calpain 9) | 0.259 | 0.919 | 0.217 | 0.294 | 0.0745
YBEY (ybeY metalloendoribonuclease) | -0.491 | 4.68 | -0.31 | -0.229 | 0.161
CHIA (chitinase acidic) | 0.836 | 4.41 | 0.864 | 0.77 | 0.794
GSDME (gasdermin E) | -0.326 | 1.81 | -0.206 | -0.256 | -0.827
TNIP1 (TNFAIP3 interacting protein 1) | 0.584 | 3.04 | 0.684 | 0.626 | 0.328
RNF126 (ring finger protein 126) | 0.252 | 3.49 | 0.263 | 0.361 | 0.173
NDST1 (N-deacetylase and N-sulfotransferase 1) | 0.341 | 2.55 | 0.0418 | 0.0781 | 0.755
YJU2B (YJU2 splicing factor homolog B) | 0.568 | 3.94 | 0.559 | 0.352 | 0.385
SEMA6B (semaphorin 6B) | -0.701 | 2.35 | -0.757 | -0.726 | -0.433
TPGS2 (tubulin polyglutamylase complex subunit 2) | -0.551 | 2.77 | -0.364 | -0.736 | -0.606
TAS2R3 (taste 2 receptor member 3) | 0.585 | 1.89 | 0.566 | 0.882 | 0.525
RGS22 (regulator of G protein signaling 22) | -0.459 | 3.31 | -0.416 | -0.518 | -0.277
CSF3 (colony stimulating factor 3) | 0.105 | 1.76 | 0.212 | 0.0167 | 0.104
CA14 (carbonic anhydrase 14) | -0.537 | 2.41 | -0.349 | -0.556 | -0.519
NID2 (nidogen 2) | 0.195 | 1.34 | 0.327 | 0.143 | -0.0833
NME6 (NME/NM23 nucleoside diphosphate kinase 6) | 0.0966 | 2.44 | 0.114 | 0.218 | 0.0282
PPP1R12C (protein phosphatase 1 regulatory subunit 12C) | 0.468 | 1.6 | 0.0886 | 0.54 | 0.632
SFSWAP (splicing factor SWAP) | 0.871 | 1.13 | 0.887 | 0.954 | 0.591
PKMYT1 (protein kinase, membrane associated tyrosine/threonine 1) | 0.685 | 1.47 | 0.405 | 0.92 | 0.691
VSNL1 (visinin like 1) | 0.228 | 1.47 | 0.201 | -0.0175 | 0.433
TAF6L (TATA-box binding protein associated factor 6 like) | 0.029 | 3.11 | 0.103 | 0.254 | 0.0203
MAB21L2 (mab-21 like 2) | -0.357 | 1.36 | -0.48 | -0.0998 | -0.224
MR1 (major histocompatibility complex, class I-related) | 0.392 | 1.46 | -0.0219 | 0.551 | 0.5
PCMTD2 | -0.652 | 1.81 | -0.637 | -0.834 | -0.552
NCOA6 (nuclear receptor coactivator 6) | -0.517 | 1.91 | -0.444 | -0.354 | -0.612
ZC3H10 (zinc finger CCCH-type containing 10) | 0.259 | 2.75 | 0.23 | 0.23 | 0.224
FASTKD3 (FASTK mitochondrial RNA regulator 3) | -0.779 | 2.5 | -0.409 | -0.947 | -0.296
IL17RA (interleukin 17 receptor A) | 0.546 | 2.33 | 0.426 | 0.501 | 0.664
